Inconclusive results, whose numbers are uncertain, are shown with a selection of clear calls. For some assays here: A potency beside an inconclusive call is a rough fit, not a confirmed value. The source made the active and inactive calls. Unless noted, the call rests on the fitted dose curve; in most records, active means well fitted curve in the direction sought with a large enough effect; inconclusive means small, poorly fitted or top-dose-only effect, or another doubt; inactive means no such curve, though single readings can be large; an effect the other way counts as inactive or inconclusive.
Experiments:
[1] = biological target: Peroxisome proliferator-activated receptor delta (Homo sapiens) (UniProt Q03181); experiment: qHTS assay for small molecule antagonists of peroxisome proliferator-activated receptor delta signaling (AID 588535; active means well fitted inhibition curve with a large enough effect in the signal ratio, with a control signal flat, not every such curve was filed as active; inconclusive means small, poorly fitted or top-dose-only effect, or effect the other way, or a change in a side signal; inactive means no such curve, though single readings can be large or run the other way; the % refers to the signal ratio); conditions: HEK293T PPARd-UAS-bla, beta-lactamase FRET ratio, 18 h; activity change, negative = inhibition: at 76.7 µM (top of the series)
Method in brief: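 Antagonist-mode beta-lactamase reporter (GeneBLAzer PPAR-delta-UAS-bla) in HEK293T cells, 2% charcoal/dextran FBS, 4000 cells/well. Compound titrations, 18 h at 37 C; CCF4 ratio read, IC50 and efficacy from Hill fits.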

The chains behind the UniProt entries cited, without tags or fusion partners. Where a name states a change or a piece, a line headed by the entry shows the natural chain unless it says otherwise.
UniProt Q03181: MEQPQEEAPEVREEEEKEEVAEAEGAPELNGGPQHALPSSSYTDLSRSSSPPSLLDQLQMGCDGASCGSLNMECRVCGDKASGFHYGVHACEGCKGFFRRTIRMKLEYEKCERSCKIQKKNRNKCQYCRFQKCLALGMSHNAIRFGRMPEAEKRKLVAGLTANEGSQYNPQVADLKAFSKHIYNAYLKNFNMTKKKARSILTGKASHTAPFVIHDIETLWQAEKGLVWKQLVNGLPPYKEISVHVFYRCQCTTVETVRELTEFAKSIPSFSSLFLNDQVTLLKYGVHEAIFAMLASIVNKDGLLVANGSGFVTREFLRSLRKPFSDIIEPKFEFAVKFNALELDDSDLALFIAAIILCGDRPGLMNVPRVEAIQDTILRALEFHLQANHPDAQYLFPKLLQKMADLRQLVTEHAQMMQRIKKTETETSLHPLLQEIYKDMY
UniProt P08684, whole entry, looked up: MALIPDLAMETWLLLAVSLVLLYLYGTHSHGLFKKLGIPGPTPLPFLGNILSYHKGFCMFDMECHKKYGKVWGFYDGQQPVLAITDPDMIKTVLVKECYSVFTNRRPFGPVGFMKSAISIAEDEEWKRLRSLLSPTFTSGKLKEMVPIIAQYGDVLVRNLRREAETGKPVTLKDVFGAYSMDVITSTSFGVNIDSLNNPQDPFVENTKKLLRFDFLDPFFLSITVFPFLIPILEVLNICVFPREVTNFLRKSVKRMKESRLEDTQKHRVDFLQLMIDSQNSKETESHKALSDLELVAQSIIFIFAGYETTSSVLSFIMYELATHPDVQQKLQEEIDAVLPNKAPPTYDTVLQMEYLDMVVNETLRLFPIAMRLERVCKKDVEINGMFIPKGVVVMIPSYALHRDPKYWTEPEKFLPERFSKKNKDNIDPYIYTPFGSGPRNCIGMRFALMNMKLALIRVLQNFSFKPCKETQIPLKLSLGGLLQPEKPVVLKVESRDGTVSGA

[2] = qHTS assay for small molecule agonists of the antioxidant response element (ARE) signaling pathway (AID 651741; active means well fitted activation curve with a large enough effect in the signal ratio; inconclusive means small, poorly fitted or top-dose-only effect, or effect the other way, or a change in a side signal; the % refers to the signal ratio; further: potency means the concentration at half of the fitted maximal effect; on activation: % of control where 0% means no effect); conditions: HepG2 ARE-bla reporter, beta-lactamase FRET ratio, 16 h; activation: at 96 µM (top of the series)
Method in brief: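 CellSensor ARE-bla HepG2 cells (2,000/well) carrying ARE-driven beta-lactamase, exposed 16 h at 37 C. LiveBLAzer B/G FRET substrate added for 2 h at room temperature; fluorescence intensity read.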

CP262 = experiment: qHTS profiling for inhibitors of Plasmodium falciparum proliferation (AID 504749); further: nearly all actives have a fitted effect of over 60% in size; further: potency means the concentration at half of the fitted maximal effect;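 on activity, negative = inhibition: 0% = DMSO vehicle and full inhibition = artemisinin control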; conditions: P. falciparum in erythrocytes, SYBR Green DNA, 72 h; series mostly up to 28.7 µM
Method in brief: (§1)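 P. falciparum-infected erythrocytes (0.3% parasitemia, 2.5% hematocrit) incubated with compound 72 h at 37 C, 5% CO2. Parasite DNA detected by SYBR Green after lysis, overnight at room temperature; normalised to 0.29 uM artemisinin and DMSO.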

3D7 = experiment: as above; conditions: P. falciparum in erythrocytes, SYBR Green DNA, 72 h; series mostly up to 28.7 µM
Method in brief: as §1

CP297 = experiment: as above; conditions: P. falciparum in erythrocytes, SYBR Green DNA, 72 h; activity, negative = inhibition: at 28.7 µM (top of the series) unless noted
Method in brief: as §1

PAD = experiment: as above; conditions: P. falciparum in erythrocytes, SYBR Green DNA, 72 h; series mostly up to 28.7 µM
Method in brief: as §1

[3] = qHTS of pediatric cancer cell lines to identify multiple opportunities for drug repurposing: Confirmatory screen for BT-12 cells (AID 1347112); further: nearly all actives have a fitted effect of over 55% in size; further: potency means the concentration at half of the fitted maximal effect; on activity change, negative = cytotoxic: on the % scale 0 is the no-effect control and ±100 the full control effect
Method in brief: (§2)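 Viability after 48 h compound treatment at 37C, 500-1,000 cells/well, read as ATP luminescence with CellTiter-Glo. Primary screens used 11-point (MIPE, 0.78 nM-46 µM) or 8-point (NPC, 0.59 nM-46 µM) final concentrations; follow-up screens used 11-point dilutions.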

[4] = qHTS of pediatric cancer cell lines to identify multiple opportunities for drug repurposing: Confirmatory screen for LAN-5 cells (AID 1347113); further: nearly all actives have a fitted effect of over 65% in size
Method in brief: as §2

[5] = qHTS of pediatric cancer cell lines to identify multiple opportunities for drug repurposing: Confirmatory screen for RD cells (AID 1347124); conditions: RD rhabdomyosarcoma cell viability; activity change, negative = cytotoxic: at 45.9 µM (top of the series);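 further: cells exposed to compound for 48 h before viability readout; nearly all actives have a fitted effect of over 65% in size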; further: potency means the concentration at half of the fitted maximal effect; on activity change, negative = cytotoxic: on the % scale 0 is the no-effect control and ±100 the full control effect
Method in brief: as §2

[6] = Quantitative High-Throughput drug screen in 47 multiple myeloma cell lines against the NCATS MIPE library collection: MM1S_ATCC cell viability assay (AID 1918980); further: nearly all actives have a fitted effect of over 45% in size; further: potency means the concentration at half of the fitted maximal effect
Method in brief: (§3)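 500 cells/well per myeloma line exposed to pinned MIPE 4.0 compounds for 48 h at 37 °C, 5% CO2. Viability read as ATP by CellTiter-Glo luminescence, normalised to DMSO-only (100%) and media-only (0%) wells.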

[7] = Quantitative High-Throughput drug screen in 47 multiple myeloma cell lines against the NCATS MIPE library collection: OCIMY5_PLB cell viability assay (AID 1918988);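 further: 100% = DMSO-treated wells and 0% = wells with media alone; nearly all actives have a fitted effect of over 65% in size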
Method in brief: as §3

[8] = Quantitative High-Throughput drug screen in 47 multiple myeloma cell lines against the NCATS MIPE library collection: UTMC2_PLB cell viability assay (AID 1919868); conditions: CellTiter-Glo ATP luminescence, 48 h; viability (% of DMSO control): at 45.8 µM (top of the series); further: nearly all actives have a fitted effect of over 55% in size; further: potency means the concentration at half of the fitted maximal effect
Method in brief: as §3

[9] = Quantitative High-Throughput drug screen in 47 multiple myeloma cell lines against the NCATS MIPE library collection: OPM2_DSMZ cell viability assay (AID 1919872); further: nearly all actives have a fitted effect of over 30% in size; further: potency means the concentration at half of the fitted maximal effect
Method in brief: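 Myeloma cell lines, 500 cells per well, exposed to MIPE 4.0 library compounds for 48 h at 37C, 5% CO2. Viability from ATP by CellTiter-Glo luminescence; normalised to DMSO (100%) and media-only (0%) wells.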

ATS95 = experiment: qHTS profiling for inhibitors of Plasmodium falciparum proliferation (AID 504749); further: nearly all actives have a fitted effect of over 60% in size; further: potency means the concentration at half of the fitted maximal effect;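 on activity, negative = inhibition: 0% = DMSO vehicle and full inhibition = artemisinin control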; conditions: P. falciparum in erythrocytes, SYBR Green DNA, 72 h; series mostly up to 28.7 µM
Method in brief: as §1

PC15 = experiment: as above; conditions: P. falciparum in erythrocytes, SYBR Green DNA, 72 h; series mostly up to 28.7 µM
Method in brief: as §1

AA1029 = experiment: as above; conditions: P. falciparum in erythrocytes, SYBR Green DNA, 72 h; series mostly up to 28.7 µM
Method in brief: as §1

[10] = Quantitative High-Throughput drug screen in 47 multiple myeloma cell lines against the NCATS MIPE library collection: OCIMY1_PLB cell viability assay (AID 1918979); further: nearly all actives have a fitted effect of over 35% in size
Method in brief: as §3

[11] = Quantitative High-Throughput drug screen in 47 multiple myeloma cell lines against the NCATS MIPE library collection: RPMI8226_ATCC cell viability assay (AID 1919871); further: potency means the concentration at half of the fitted maximal effect; nearly all actives have a fitted effect of over 30% in size
Method in brief: as §3

[12] = biological target: Cytochrome P450 3A4 (Homo sapiens) (UniProt P08684); experiment: Cytochrome P450 family 3 subfamily A member 4 (CYP3A4) small molecule antagonists: luciferase qHTS assay (AID 1645841; active means well fitted curve in the direction sought with a large enough effect in the repeat runs; inconclusive means weak or mixed curves; inactive means no such curve, though single readings can be large; an effect the other way counts as inactive or inconclusive; further: potency means the concentration at half of the fitted maximal effect; nearly all actives have a fitted effect of over 45% in size)
Method in brief: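 P450-Glo CYP3A4 enzyme with proluciferin substrate preincubated 10 min with compound at room temperature, then NADPH regeneration 1 h. Luciferin detection reagent added for 20 min; luminescence recorded. Ketoconazole positive control.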

CN(C)CCC=C1c2ccccc2CCc2ccccc21
activity change, negative = inhibition [1]: inconclusive: 14.5% | activation [2]: inconclusive: 7.41%

CC(=O)N[C@@H](CS)C(=O)O
Potency [1]: inactive | Potency (CP262): inactive

C[C@H]1COc2c(C3(N)CC3)c(F)cc3c(=O)c(C(=O)O)cn1c23
Potency (3D7): inconclusive: 10 µM [inhibitor, single point] | Potency (CP297): inconclusive: 5.36 µM [inhibitor, partial curve, poor fit]

COc1ccc(S(=O)(=O)Nc2nnc(CC(C)C)s2)cc1
Potency (PAD): inactive

COc1cc(C(=O)N2CCCCCCC2)cc(OC)c1OC
Potency (CP297): inactive

Brc1ccccc1-c1ccccc1
activity change, negative = inhibition [1]: inconclusive: -18.5%

OCCOCCN1CCN(C(c2ccccc2)c2ccc(Cl)cc2)CC1 (configuration not stated)
activity change, negative = inhibition [1]: inconclusive: -5.92% | Potency [2]: inactive

O=C1c2c(O)cccc2[C@@H]([C@@H]2O[C@H](CO)[C@@H](O)[C@H](O)[C@H]2O)c2cc(CO)cc(O)c21
Potency [3]: inconclusive: 36.9 µM [cytotoxic, single point] | Potency [4]: inactive | Potency [5]: inconclusive: 36.9 µM [cytotoxic, single point] | Potency [6]: inconclusive: 0.0187 µM [rising, full curve, poor fit] | Potency [7]: inactive | Potency [8]: inconclusive: 23.5 µM [rising, single point]

CN[C@H]1[C@@H](O)[C@@H]2O[C@@H]3O[C@H](C)CC(=O)[C@]3(O)O[C@@H]2[C@@H](NC)[C@H]1O
Potency [3]: inactive | Potency [4]: inactive | Potency [5]: inactive | Potency [6]: active: 0.209 µM | Potency [9]: inconclusive: 11.8 µM [cytotoxic, partial curve]

CCNC(=O)N1CCN(CCCC(c2ccc(F)cc2)c2ccc(F)cc2)CC1
Potency (ATS95): active: 2.24 µM | Potency (CP262): active: 3.01 µM | Potency (PC15): active: 3.55 µM

CC(=O)OCC(=O)[C@@]1(O)CC[C@H]2[C@@H]3CCC4=CC(=O)C=C[C@]4(C)[C@@]3(F)[C@@H](O)C[C@@]21C
Potency [3]: inconclusive: 14.7 µM [cytotoxic, partial curve, poor fit] | Potency [5]: active: 20.8 µM

CC(=O)Nc1ccc(OC(=O)c2ccccc2OC(C)=O)cc1
Potency (AA1029): inactive

CN(C)CCC(c1ccccc1)c1ccccn1 (configuration not stated)
Potency [1]: inactive | Potency (AA1029): inconclusive: 12.6 µM [inhibitor, single point] | Potency (ATS95): inconclusive: 10 µM [inhibitor, single point] | Potency (CP297): inconclusive: 8.49 µM [inhibitor, partial curve, poor fit]

O=C(O)COCCN1CCN(C(c2ccccc2)c2ccc(Cl)cc2)CC1 (configuration not stated)
Potency [10]: inactive | Potency [6]: inactive | Potency [7]: inactive | Potency [8]: inactive | Potency [11]: inconclusive: 20.9 µM [cytotoxic, partial curve, poor fit]

CC(C)(O)CC[C@@H](O)[C@](C)(O)[C@H]1CC[C@@]2(O)C3=CC(=O)[C@@H]4C[C@@H](O)[C@@H](O)C[C@]4(C)[C@@H]3CC[C@]12C
Potency [10]: inactive | Potency [6]: inconclusive: 37.2 µM [cytotoxic, single point] | Potency [7]: inactive | Potency [8]: inconclusive: 0.0418 µM [cytotoxic, full curve, poor fit] | Potency [9]: inactive

O=C(O)[C@H](CC(=O)N1C[C@H]2CCCC[C@H]2C1)Cc1ccccc1
Potency [12]: inconclusive: 37.9 µM [falling, single point] | Potency (3D7): inactive

CN[C@H](C(=O)N[C@H](C(=O)N(C)[C@H](/C=C(\C)C(=O)O)C(C)C)C(C)(C)C)C(C)(C)c1ccccc1
Potency [12]: inconclusive: 33.8 µM [falling, single point]

COc1cc(C=O)ccc1O
Potency [2]: inconclusive: 75 µM [activator, partial curve, poor fit] | activation [2]: inconclusive: 4.5%

Source: PubChem BioAssay (NCATS)
